{"source": "PubChem BioAssay AID1259314 | Drosophila RNAi Screening Center – 2017", "assay": "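Transmembrane protein genes affecting ATP after manganese overload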 (primary screen)", "cells": "Drosophila S2R+ cells", "reagents": "long dsRNA against Drosophila genes", "duration": "5 days (4 days knock-down, then 1 day metal exposure)", "conditions": "manganese chloride added to 15 mM for 24 hours", "measured": "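Luciferase ATP signal used as a proxy for viable cell number, reported as one averaged z-score per dsRNA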", "direction": "mean ATP z-score: higher = more ATP than the plate average, more viable cells under manganese", "active means": "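Called active when the mean ATP z-score is above 1.5 or below -1.5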", "meaning of the calls": "active = strong ATP change, up or down; inactive = no strong ATP change", "note": "The deposit covers about 3,100 reagents; shown is a random part of them. Over the whole deposit, 289 (9.3%) got an active call. 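Active includes both higher and lower ATP than plate average; check the z-score sign for direction.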 A number with no mark means an inactive call. Names joined by + are all predicted targets of the reagent. Not stated in the record: the amount of reagent."}
{"Target gene": "CG9981", "dsRNA": "DRSC20225", "mean ATP z-score": 0.774}
{"Target gene": "Ir7c (Ionotropic receptor 7c)", "dsRNA": "DRSC18007", "mean ATP z-score": -0.509}
{"Target gene": "Ir7c (Ionotropic receptor 7c)", "dsRNA": "DRSC39710", "mean ATP z-score": 0.344}
{"Target gene": "ItgaPS5 (Integrin alphaPS5 subunit)", "dsRNA": "DRSC04501", "mean ATP z-score": -0.486}
{"Target gene": "ItgaPS5 (Integrin alphaPS5 subunit)", "dsRNA": "DRSC28842", "mean ATP z-score": -0.324}
{"Target gene": "stj (straightjacket)", "dsRNA": "DRSC06124", "mean ATP z-score": -0.219}
{"Target gene": "Zip102B (Zinc/iron regulated transporter-related protein 102B)", "dsRNA": "DRSC26001", "mean ATP z-score": -1.29}
{"Target gene": "Zip102B (Zinc/iron regulated transporter-related protein 102B)", "dsRNA": "DRSC39739", "mean ATP z-score": 0.533}
{"Target gene": "CG31787", "dsRNA": "DRSC01632", "mean ATP z-score": -0.202}
{"Target gene": "CG3625", "dsRNA": "DRSC00008", "mean ATP z-score": 1.08}
{"Target gene": "CG3625", "dsRNA": "DRSC00621", "mean ATP z-score": -0.584}
{"Target gene": "Tret1-2 (Trehalose transporter 1-2)", "dsRNA": "DRSC07117", "mean ATP z-score": 0.953}
{"Target gene": "Tret1-2 (Trehalose transporter 1-2)", "dsRNA": "DRSC28985", "mean ATP z-score": 0.297}
{"Target gene": "CG33969", "dsRNA": "DRSC11777", "mean ATP z-score": -0.387}
{"Target gene": "Pex13 (Peroxin 13)", "dsRNA": "DRSC06877", "mean ATP z-score": -0.682}
{"Target gene": "ogre (optic ganglion reduced)", "dsRNA": "DRSC18809", "mean ATP z-score": 0.712}
{"Target gene": "ogre (optic ganglion reduced)", "dsRNA": "DRSC24730", "mean ATP z-score": -0.569}
{"Target gene": "CG4645", "dsRNA": "DRSC19907", "mean ATP z-score": -1.17}
{"Target gene": "CG4645", "dsRNA": "DRSC24802", "mean ATP z-score": "2.88 (active)"}
{"Target gene": "CG14857", "dsRNA": "DRSC14981", "mean ATP z-score": 0.0105}
{"Target gene": "CG14857", "dsRNA": "DRSC39636", "mean ATP z-score": 0.668}
{"Target gene": "fz2 (frizzled 2)", "dsRNA": "DRSC10087", "mean ATP z-score": -0.935}
{"Target gene": "fz2 (frizzled 2)", "dsRNA": "DRSC11349", "mean ATP z-score": -0.712}
{"Target gene": "robo3 (roundabout 3)", "dsRNA": "DRSC00374", "mean ATP z-score": "4.04 (active)"}
{"Target gene": "robo3 (roundabout 3)", "dsRNA": "DRSC00684", "mean ATP z-score": -0.354}
{"Target gene": "ZnT63C (Zinc transporter 63C)", "dsRNA": "DRSC08032", "mean ATP z-score": 0.534}
{"Target gene": "ZnT63C (Zinc transporter 63C)", "dsRNA": "DRSC08033", "mean ATP z-score": "2.45 (active)"}
{"Target gene": "ZnT63C (Zinc transporter 63C)", "dsRNA": "DRSC23528", "mean ATP z-score": "2.08 (active)"}
{"Target gene": "CG34396", "dsRNA": "DRSC04245", "mean ATP z-score": 0.821}
{"Target gene": "CG34396", "dsRNA": "DRSC04246", "mean ATP z-score": -0.633}
{"Target gene": "CG34396", "dsRNA": "DRSC29674", "mean ATP z-score": -0.289}
{"Target gene": "mGluR (metabotropic Glutamate Receptor)", "dsRNA": "DRSC17215", "mean ATP z-score": 0.57}
{"Target gene": "mGluR (metabotropic Glutamate Receptor)", "dsRNA": "DRSC39626", "mean ATP z-score": 0.432}
{"Target gene": "CG34234 + Dh44-R2", "dsRNA": "DRSC07278", "mean ATP z-score": -0.264}
{"Target gene": "MstProx", "dsRNA": "DRSC12458", "mean ATP z-score": -0.392}
{"Target gene": "MstProx", "dsRNA": "DRSC12601", "mean ATP z-score": -0.363}
{"Target gene": "loj (logjam)", "dsRNA": "DRSC09791", "mean ATP z-score": "1.52 (active)"}
{"Target gene": "loj (logjam)", "dsRNA": "DRSC39866", "mean ATP z-score": "2.38 (active)"}
{"Target gene": "ClC-c (Chloride channel-c)", "dsRNA": "DRSC10499", "mean ATP z-score": -0.436}
{"Target gene": "ClC-c (Chloride channel-c)", "dsRNA": "DRSC39779", "mean ATP z-score": -0.445}
{"Target gene": "Cad88C (Cadherin 88C)", "dsRNA": "DRSC15486", "mean ATP z-score": 0.0385}
{"Target gene": "Cad88C (Cadherin 88C)", "dsRNA": "DRSC26126", "mean ATP z-score": -0.756}
{"Target gene": "CG8195", "dsRNA": "DRSC07103", "mean ATP z-score": -0.966}
{"Target gene": "CG32983", "dsRNA": "DRSC22367", "mean ATP z-score": -1.39}
{"Target gene": "CLS (Cardiolipin synthase)", "dsRNA": "DRSC15642", "mean ATP z-score": 0.705}
{"Target gene": "CLS (Cardiolipin synthase)", "dsRNA": "DRSC28289", "mean ATP z-score": -0.236}
{"Target gene": "vir (virilizer)", "dsRNA": "DRSC04377", "mean ATP z-score": -1.38}
{"Target gene": "vir (virilizer)", "dsRNA": "DRSC26525", "mean ATP z-score": -1}
{"Target gene": "CG43693", "dsRNA": "DRSC09086", "mean ATP z-score": "1.59 (active)"}
{"Target gene": "CG43693", "dsRNA": "DRSC10625", "mean ATP z-score": -0.967}
{"Target gene": "NaPi-T (Na[+]-dependent inorganic phosphate cotransporter)", "dsRNA": "DRSC07476", "mean ATP z-score": 0.149}
{"Target gene": "NaPi-T (Na[+]-dependent inorganic phosphate cotransporter)", "dsRNA": "DRSC24468", "mean ATP z-score": -0.769}
{"Target gene": "CG33282", "dsRNA": "DRSC00422", "mean ATP z-score": 0.149}
{"Target gene": "CG33282", "dsRNA": "DRSC39731", "mean ATP z-score": "2.79 (active)"}
{"Target gene": "Spase25 (Spase 25-subunit)", "dsRNA": "DRSC19776", "mean ATP z-score": -0.596}
{"Target gene": "Spase25 (Spase 25-subunit)", "dsRNA": "DRSC39745", "mean ATP z-score": 0.545}
{"Target gene": "CG7458", "dsRNA": "DRSC11829", "mean ATP z-score": 0.112}
{"Target gene": "CG7458", "dsRNA": "DRSC21340", "mean ATP z-score": -0.0995}
{"Target gene": "CG1998", "dsRNA": "DRSC19829", "mean ATP z-score": -0.171}
{"Target gene": "CG1998", "dsRNA": "DRSC39895", "mean ATP z-score": 0.607}
